Measured values taken from paper PMC8133776.
Like-named read-outs stand apart in the source and are kept apart here. No constants are given. Whether binding was seen depends on the method and setting. Binding seen in cells or lysates may run through a third protein. These calls come from enrichment with a bait or labelling near it, and not all partners need be listed.

Amino acid sequences for entries named in this document (tags omitted). A change or cut given only in a name is not applied to a line headed by its entry.
UniProt Q9W4W2: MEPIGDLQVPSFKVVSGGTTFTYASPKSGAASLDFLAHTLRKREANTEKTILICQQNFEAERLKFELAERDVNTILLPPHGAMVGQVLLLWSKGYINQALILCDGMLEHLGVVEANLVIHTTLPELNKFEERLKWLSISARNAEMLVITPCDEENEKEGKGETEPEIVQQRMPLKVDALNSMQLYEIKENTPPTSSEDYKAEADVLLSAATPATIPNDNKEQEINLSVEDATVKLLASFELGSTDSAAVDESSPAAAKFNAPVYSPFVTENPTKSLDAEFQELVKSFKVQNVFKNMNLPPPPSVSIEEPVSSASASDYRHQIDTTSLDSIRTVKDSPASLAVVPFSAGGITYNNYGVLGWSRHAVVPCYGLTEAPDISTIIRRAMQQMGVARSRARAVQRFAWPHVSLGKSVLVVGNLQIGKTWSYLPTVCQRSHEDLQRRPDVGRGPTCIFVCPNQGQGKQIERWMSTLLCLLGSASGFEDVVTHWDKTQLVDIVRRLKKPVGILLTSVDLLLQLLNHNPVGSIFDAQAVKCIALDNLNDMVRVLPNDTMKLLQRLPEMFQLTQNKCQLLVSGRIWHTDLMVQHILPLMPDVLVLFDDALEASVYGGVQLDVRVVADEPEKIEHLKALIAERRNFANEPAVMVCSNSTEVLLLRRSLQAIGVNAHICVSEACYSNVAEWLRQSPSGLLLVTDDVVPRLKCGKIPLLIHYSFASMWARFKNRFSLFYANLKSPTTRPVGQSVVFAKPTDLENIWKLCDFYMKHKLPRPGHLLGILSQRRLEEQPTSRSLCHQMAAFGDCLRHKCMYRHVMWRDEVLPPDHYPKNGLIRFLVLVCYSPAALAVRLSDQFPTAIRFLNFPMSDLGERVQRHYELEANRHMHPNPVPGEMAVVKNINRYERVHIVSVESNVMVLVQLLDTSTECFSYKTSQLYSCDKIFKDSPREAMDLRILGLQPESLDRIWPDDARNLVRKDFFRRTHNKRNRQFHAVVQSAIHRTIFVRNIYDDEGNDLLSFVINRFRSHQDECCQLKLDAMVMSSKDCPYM
UniProt Q9W1X4: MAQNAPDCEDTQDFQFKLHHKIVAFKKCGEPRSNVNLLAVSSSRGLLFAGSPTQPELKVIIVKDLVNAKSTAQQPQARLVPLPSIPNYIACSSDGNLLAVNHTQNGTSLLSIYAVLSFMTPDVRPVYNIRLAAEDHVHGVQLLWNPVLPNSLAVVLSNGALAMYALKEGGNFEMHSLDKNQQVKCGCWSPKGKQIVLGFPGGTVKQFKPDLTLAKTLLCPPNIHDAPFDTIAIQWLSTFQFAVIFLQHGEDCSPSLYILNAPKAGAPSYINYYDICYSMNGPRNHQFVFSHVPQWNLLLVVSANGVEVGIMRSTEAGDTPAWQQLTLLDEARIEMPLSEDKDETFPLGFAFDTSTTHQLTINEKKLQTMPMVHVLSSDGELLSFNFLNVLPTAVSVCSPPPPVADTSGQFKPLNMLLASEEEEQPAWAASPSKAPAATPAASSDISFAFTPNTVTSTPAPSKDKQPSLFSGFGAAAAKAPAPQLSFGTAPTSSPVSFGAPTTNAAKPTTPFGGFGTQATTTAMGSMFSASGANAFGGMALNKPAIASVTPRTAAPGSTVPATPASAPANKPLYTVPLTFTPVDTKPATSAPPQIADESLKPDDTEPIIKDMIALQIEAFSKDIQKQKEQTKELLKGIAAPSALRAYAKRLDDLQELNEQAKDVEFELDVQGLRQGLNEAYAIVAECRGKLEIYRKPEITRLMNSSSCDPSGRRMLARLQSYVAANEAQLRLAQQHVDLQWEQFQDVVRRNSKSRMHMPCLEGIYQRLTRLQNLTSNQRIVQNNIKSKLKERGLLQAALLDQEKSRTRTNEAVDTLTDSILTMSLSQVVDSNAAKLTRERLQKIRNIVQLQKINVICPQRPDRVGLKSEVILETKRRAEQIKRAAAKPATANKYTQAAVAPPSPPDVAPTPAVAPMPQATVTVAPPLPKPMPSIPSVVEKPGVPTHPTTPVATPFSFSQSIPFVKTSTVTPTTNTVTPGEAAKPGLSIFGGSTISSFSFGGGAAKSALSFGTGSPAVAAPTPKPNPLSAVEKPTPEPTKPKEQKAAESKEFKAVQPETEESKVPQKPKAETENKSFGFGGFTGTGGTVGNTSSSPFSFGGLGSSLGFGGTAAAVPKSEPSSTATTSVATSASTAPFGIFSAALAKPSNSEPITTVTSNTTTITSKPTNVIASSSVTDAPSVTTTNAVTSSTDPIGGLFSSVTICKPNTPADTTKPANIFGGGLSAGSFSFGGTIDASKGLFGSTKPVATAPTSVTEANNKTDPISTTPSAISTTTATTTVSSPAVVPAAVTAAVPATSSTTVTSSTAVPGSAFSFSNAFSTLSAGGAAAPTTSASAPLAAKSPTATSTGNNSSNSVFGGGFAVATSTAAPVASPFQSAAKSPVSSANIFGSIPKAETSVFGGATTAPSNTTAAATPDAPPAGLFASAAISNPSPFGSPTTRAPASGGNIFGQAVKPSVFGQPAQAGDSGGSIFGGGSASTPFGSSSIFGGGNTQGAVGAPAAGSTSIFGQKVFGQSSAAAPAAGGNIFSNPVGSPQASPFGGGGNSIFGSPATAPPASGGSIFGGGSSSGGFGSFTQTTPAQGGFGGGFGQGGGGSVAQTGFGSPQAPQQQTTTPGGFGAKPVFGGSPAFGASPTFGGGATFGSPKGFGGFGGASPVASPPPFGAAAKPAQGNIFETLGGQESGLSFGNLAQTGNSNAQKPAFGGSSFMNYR

B1: Armi (protein, UniProt Q6J5K9 1-1188)
chain: MFTYVSKFFTNPDRNREDILESLDRENSFLDQKLMEEKMDQQLKANPNEINGVLSNKIAELTHGLSEMDVSKESSCTARKGVITSLDGDRGVIDKDVLFETKVAEDIILDLHVGCVVEYLTFTTGEAMRVVKVKSILEHSWEDTSQKEIEKAVDNLKNEKPTFFNTETRSVLGLISQRLASSIDVETEYGQLTVELDNIEMNFIPTNGDRVRLECNIQLDDGFVDKQGEILEVTKLFPTRIQEGEKCIVERVYVHMVVLGPETYILKTDLPTGTDLHLGDIVLADLIECQYSKFTRRAIKITPLEKNFGATKLTQQSSMGSSGSGKAVTVTGVNRFITAELWQKESVSLKLTNNLNRTLRLESITVCNDSESQLSVVSPLESKEISSGSEITVTFEIHTQFLGEAIEKYVLNFDLLKVRRVFTVIVCKTKEEVAEAEKRMIAAEALMAPGRNSQERSRFYANQVWCNKVDVIPGQQIVTKRRFVALRLGCFEVPKELRQICLTSERRQEMIKAIEQHYSFLTEPLSIKTYMHRFRLLLHLEEIECFVNFRNYDRDRAHFLRDGEFLTLQIENLAERRPSLVIGDTLRVINPWSDPDSQTTKSYEGIIHKVLFDRILLKFHSSFQEKYNGEDYRLEFYFSRYSFRKQHHAISKIVGVMGEDFLFPSKVTKRENPQLDVYMKDDDMYLYDSKLEWYNQSLNSIQKRAVFNILRGEAENIPYVLFGPPGSGKTMTLIETLLQLVRNLPGARILVGTPSNSSADLVTKRLIDSKALLQGDFIRLVSYNQVEKDLIPPEIMSYCATSDVGAVGSCEDKMMVTESGLKLRCQAKFIGTHRITISTCTTLGNFLQLGFPAGHFTHVLFDEAGQCTEPETMVPIVMLTKKRSQVVLSGDPRQLQSIVTSRIASKMGFSISFLERLLERSPYRKDLQRFPESSGYNPLVLTKLLYNYRALPSIMSIYSRLFYDDELIPVLSEKDSRESRLLSKLRCVFESEKDIPQAHGTFFYGIIGENRQNNDSPSWFNPQEVREVFLMTIALYRANVTADQIGIITPYQKQVKMLRSMFIGTDVVMPKIGSVEEFQGQERDIILISTVRSSEEILRMDARFSLGFVRCSKRLNVAVSRARAMMIIFGNPHLLAVDECWRQLILFCVKNNAYFGCDLPQMVINQKDEVPVCLETFVPSLNTTDDLN
B2: Nup54 (endogenous) (protein, UniProt Q9V6B9 1-610)
chain: MSFFGSNTSLGATSTPAKTTGGLFGSPFGGTAATSQPAPAFGAQATSTPAFGAQPATSAFGAGSAFGATAAAPAFGAATGTSAFGGSAFGSTPAFGAATTTTAGTGLGGGGFGGFGAAPATSQAGLFGAPATSAAPPAFSGFGQQAAASTAPASGFSGFGTTTTSAPAFGGFGTSQSTGFGGGAFGSTFGKPANTTVTPGFGGFGGTSFMLGQPQQQPAPISADEAFAQSILNVSIFGDERDKIVAKWNYLQATWGTGKMFYSQSAAPVDITPENVMCRFKAIGYSRMPGKDNKLGLVALNFCRELSAVKPHQQQVIQTLHSLFGSKPNMLVHIDSIKELENKKCQIVIYVEEKLQHAPNESKRILATELSNYLNQATLKPQLNNLGVVEALALVLPDEDQLREYLENPPRGVDPRMWRQANSDNPDPTLYIPVPMVGFNDLKWRVKCQEQETDTHALYIKKVESELTELKKRHATATAKILEHKRKLAELSHRILRIIVKQECTRKVGTSLTPEEEALRTKLQNMLAVVSAPTQFKGRLSELLSQMRMQRNQFAANGGAEYALDKEAEDEMKTFLTMQQRAMEVLSDTVNKDLRALDVIIKGLPELRQS
B3: Nup62 (protein, UniProt Q7JXF5 1-394)
chain: MVFQLPTTTAAPTGGATSSFSFGLSTGTPAAAPASGAATTAPATKTTFSFGTPAPTAGIGGGDADNSKAQAPPAFGFGLGSGTASAPLTLGTQAAANPASTTSATATGTSAAPPAFGGFTAQPAASVVPTIATSAPNTAATTTGLLGGSGLGAPKTTAAASTTLTAAPSAIASTQGAAPAPTLSTGGAFANLTTETKTTDSSAVSTASQLSYHQLEEHINKWTLEFEEQEKVFTEQATQINAWDKLLISNNGKIVELNDAVKKVKTDQQVLDQELEFIATQQKELEDSLGPLEKEFVNLPRVDMERSQTYLMVENLDTQLKQMSEDLKEIIDNLNEANKGQDTTDPIIQIGKILNAHMNSLQWIESQSTNISKKLEDIGKIQDSQKRDIFRAPF
B4: Nup93-1 (protein, UniProt Q9XZ06 1-823)
chain: MDLMELLKQAQRLTNETNTDTEVPGVERTMSQVLQATKEFHSRVTQMGTNDLQAHILLGSKGVDLPKLTQKLESLSARQTFEPIDPVTETNVQAYLKNERENAILSVIDETNRSIFKSVERQKWRCIYSEWGEEKEALLNALVGPNQQDFPDVQFQIVPTAMADEPTPYSQLNGHEQMYAEQIAIHNQSIILGRRPNLLSTLAHVVQDSFNDESVAEMWNVLQFMTALPPVSSTIDPIKNRQTSPQFVEQARTYLERRYRTYMRKFIVANLAKARRGGIPSVYHMVRSYVGVTLQGQRALYGLHDVNNGQPLWPHVYYSLRSGDMDAAALYLKESGTCPDLLTLLTLRKNGDRDNLMVKLEGQLKLEYNSRLRACTDPYKKAVYVVLLACDPHFTHVELMRSIDDFLWMQLSILRRSDQSDSNTEQLTFSGLQSLILEKYGENYFNAREKAALYFQVLTLTGQFEAAIEFLARTEKNRTHAIHMAIALNEISMLGTPRSVEQSLLSSDPDDPKPMKRLNLVRLIVMYTKCFERTDTTQALHYYYLLRNFKSENGRGNVMLTCVCDLLVEKCDDEMLELIFGTEDKKNGLRYGGIYAEFQIHECDKYSLAEMVGDELSKRGDYELAIELYFIGGQLDKALRLVNSLLAQVVHQPTQNGSVRNRLGDIINRLDAALVVRKSDVEVQVVVTYTVLTKVMKFFDHYHEGALRSALEILTNNHLIPASSLEVDECVTNIKRMGPEVIKVLPDILLASMDIVYQEYVKLMDSNETASGFFDESKCVNKEPAVKHLRDRAKAFTNMAASVPYRMPSTTNQRLVQLEILMH
B5: Piwi (protein, UniProt Q9VKM1 1-843)
chain: MADDQGRGRRRPLNEDDSSTSRGSGDGPRVKVFRGSSSGDPRADPRIEASRERRALEEAPRREGGPTERKPWGDQYDYLNTRPAELVSKKGTDGVPVMLQTNFFRLKTKPEWRIVHYHVEFEPSIENPRVRMGVLSNHANLLGSGYLFDGLQLFTTRKFEQEITVLSGKSKLDIEYKISIKFVGFISCAEPRFLQVLNLILRRSMKGLNLELVGRNLFDPRAKIEIREFKMELWPGYETSIRQHEKDILLGTEITHKVMRTETIYDIMRRCSHNPARHQDEVRVNVLDLIVLTDYNNRTYRINDVDFGQTPKSTFSCKGRDISFVEYYLTKYNIRIRDHNQPLLISKNRDKALKTNASELVVLIPELCRVTGLNAEMRSNFQLMRAMSSYTRMNPKQRTDRLRAFNHRLQNTPESVKVLRDWNMELDKNVTEVQGRIIGQQNIVFHNGKVPAGENADWQRHFRDQRMLTTPSDGLDRWAVIAPQRNSHELRTLLDSLYRAASGMGLRIRSPQEFIIYDDRTGTYVRAMDDCVRSDPKLILCLVPNDNAERYSSIKKRGYVDRAVPTQVVTLKTTKNRSLMSIATKIAIQLNCKLGYTPWMIELPLSGLMTIGFDIAKSTRDRKRAYGALIASMDLQQNSTYFSTVTECSAFDVLANTLWPMIAKALRQYQHEHRKLPSRIVFYRDGVSSGSLKQLFEFEVKDIIEKLKTEYARVQLSPPQLAYIVVTRSMNTRFFLNGQNPPPGTIVDDVITLPERYDFYLVSQQVRQGTVSPTSYNVLYSSMGLSPEKMQKLTYKMCHLYYNWSGTTRVPAVCQYAKKLATLVGTNLHSIPQNALEKKFYYL
B6: Nup58 (endogenous) (protein, UniProt Q9VDV3 1-546)
chain: MFTPTTNNAIGGATAATGAFAFGARPATTTAPPPSFGAATSTPTFGAAPATTSLFAAPAATPAFGAPAATPAFGAPASTPGFGATSTAAPAFGTAAATPAFGIPAATSAFGAPAATPAFGAAAATPAFGAPAATPAFGAPAATSAFGAPAATTAFGAPASTQASAFGAPAPAVGTVAPTFSFATPATSAPTTAPPAFGFGTTATTAAAAMPASLSSGIGSFSFPKPQATTAASLNFNTTTTTATAQPFNTGLKLGTTNATTTLGGGGIFSKPAGQAAAPAASTFVGLGGIDVTATQPKLGDNKQDGIKIKETQVPDEIIKTVDGLKAYIKQQKTISSDIGRTSTSKFTNVSHEITNLKWALQNMATLVEGSNQQIRLMRQETVKAIQSLEMAQRTQDTPAGLQFENNAPFQYFQCLVAKYEQDLIAFRQQIALTERHMHAISNPQSISPDDLKRGFRQLNESFISLAGRLHEVHQRVEEHKEHYLNLRRYRLRDTTNVFERIDNPPLPTVEPQRISSGPTPFSNISALMNKSYAAAASSASNATGN

Assays:
Assay in all cases: proximity labelling; HA-BASU fusion expressed in OSCs, 200 uM biotin for 1 hr, streptavidin pulldown of biotinylated proteins, TMT quantitative mass spectrometry against HA-ZsGreen control
[1] = target: BASU-Yb (Drosophila melanogaster) (UniProt Q9W4W2)
[2] = target: BASU-Yb (Drosophila melanogaster) (UniProt Q9W4W2); remark: listed apart in the source
[3] = target: T1, BASU-Nup58 (Drosophila melanogaster) (UniProt Q9VDV3)
T1 sequence: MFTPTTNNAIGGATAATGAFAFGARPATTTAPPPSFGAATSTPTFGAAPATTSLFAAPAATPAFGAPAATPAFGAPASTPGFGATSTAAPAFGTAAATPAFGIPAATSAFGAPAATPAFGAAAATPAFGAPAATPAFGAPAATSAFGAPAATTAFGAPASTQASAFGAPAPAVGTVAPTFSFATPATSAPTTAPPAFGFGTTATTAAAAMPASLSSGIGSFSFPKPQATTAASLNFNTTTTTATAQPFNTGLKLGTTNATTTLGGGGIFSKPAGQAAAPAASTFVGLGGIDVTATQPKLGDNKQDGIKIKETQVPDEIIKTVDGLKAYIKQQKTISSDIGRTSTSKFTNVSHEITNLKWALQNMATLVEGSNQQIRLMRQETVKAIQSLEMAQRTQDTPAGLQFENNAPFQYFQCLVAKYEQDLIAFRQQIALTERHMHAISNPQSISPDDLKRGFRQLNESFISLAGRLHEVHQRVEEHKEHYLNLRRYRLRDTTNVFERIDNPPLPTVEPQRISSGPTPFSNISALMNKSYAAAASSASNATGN

[4] = target: T2, BASU-Nup54 (Drosophila melanogaster) (UniProt Q9V6B9)
T2 sequence: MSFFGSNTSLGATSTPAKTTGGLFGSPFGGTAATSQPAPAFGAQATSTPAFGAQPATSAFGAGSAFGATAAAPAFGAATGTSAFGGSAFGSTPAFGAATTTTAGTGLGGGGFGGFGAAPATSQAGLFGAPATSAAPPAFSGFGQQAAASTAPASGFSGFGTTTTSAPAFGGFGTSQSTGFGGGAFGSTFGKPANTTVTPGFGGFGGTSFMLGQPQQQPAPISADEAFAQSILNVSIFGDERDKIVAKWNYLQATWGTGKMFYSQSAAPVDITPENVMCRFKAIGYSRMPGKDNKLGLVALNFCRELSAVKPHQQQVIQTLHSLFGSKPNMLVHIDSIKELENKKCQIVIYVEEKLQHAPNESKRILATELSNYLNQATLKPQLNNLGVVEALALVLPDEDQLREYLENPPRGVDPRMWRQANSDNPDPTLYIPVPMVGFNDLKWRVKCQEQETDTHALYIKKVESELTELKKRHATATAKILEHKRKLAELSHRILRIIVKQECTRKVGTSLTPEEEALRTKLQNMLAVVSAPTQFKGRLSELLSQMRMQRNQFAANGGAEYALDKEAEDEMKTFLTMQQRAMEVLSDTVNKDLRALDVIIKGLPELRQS

binding [3] | binding [4] | also measured | Molecule
– | – | binding [1]: binds | Nup214 (from UniProt Q9W1X4 1-1711)
– | – | binding [2]: binds | B1
binds | – | – | B2
binds | binds | – | B3
binds | binds | – | B4
– | – | binding [2]: binds | B5
– | binds | – | B6
